Measured values reported in patent publication US20160206764A1 (ONCOINVENT, published 2016).
Results are given in words; binding and its absence hold for the method and conditions named. Some binding calls cover weakened binding; strength is not graded here.

The chains behind the UniProt entries cited, without tags or fusion partners. Residues count along the entry.
UniProt P43121, residues 24-646: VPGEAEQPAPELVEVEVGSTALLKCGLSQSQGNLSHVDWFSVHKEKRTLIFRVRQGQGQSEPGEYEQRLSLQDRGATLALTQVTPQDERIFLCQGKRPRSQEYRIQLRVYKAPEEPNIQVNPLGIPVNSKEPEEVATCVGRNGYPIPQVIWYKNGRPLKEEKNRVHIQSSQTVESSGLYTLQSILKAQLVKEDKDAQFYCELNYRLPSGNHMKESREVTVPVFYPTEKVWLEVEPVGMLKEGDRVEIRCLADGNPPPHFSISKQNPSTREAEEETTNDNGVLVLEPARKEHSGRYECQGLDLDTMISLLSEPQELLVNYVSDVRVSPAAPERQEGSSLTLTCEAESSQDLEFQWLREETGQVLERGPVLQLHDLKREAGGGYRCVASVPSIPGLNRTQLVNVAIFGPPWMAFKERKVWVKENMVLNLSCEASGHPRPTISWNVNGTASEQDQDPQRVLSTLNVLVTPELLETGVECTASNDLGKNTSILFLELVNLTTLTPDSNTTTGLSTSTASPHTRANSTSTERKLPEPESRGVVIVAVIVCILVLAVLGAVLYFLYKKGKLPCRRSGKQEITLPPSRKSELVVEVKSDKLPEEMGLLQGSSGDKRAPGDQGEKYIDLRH

Biological target: CD146/MCAM/MUC-18 in a commercial lysate of overexpressing cells (OriGene) (UniProt P43121)
Experiment: Western blot of commercial lysate of CD146 overexpressing cells

B1: OI-3 murine monoclonal antibody (antibody, V domains shown)
VH: EVQLQQSGPELVKTGASVKISCKASGYSFTGYYIHWVKQSHGKSLEWIGYISNYNGATTYSQEFKGKATFTVDRSSRIAYMQFTGLTSEDSAVYYCAGNSWGDWYFDVWGAGTTVTVSS
VL: DVVMTQTPLSLPVSLGDQASISCRSSQSLVHSNGNTYLHWYLQKPGQSPKLLIYKVSNRFSGVPDRFSGSGSGTDFTLKISRVEAEDLGVYFCSQSTHVSTFGGGTKLEIK
notes: also called ^177Lu-OI-3
Question: Which binding does the source give for B1 here?
Answer: binds
